Data taken from PubChem BioAssay AID256 (DTP/NCI, 2004).
The list is a part of this screen's results and no random one: it gathers tests that were run many times, whatever their T/C, doses with no T/C, and many T/C values between a quarter and a half above the control. Other doses and runs of a compound stand elsewhere. T/C: endpoint of the treated group in % of that of the vehicle group. Some doses have a count of surviving animals in place of a T/C: the source holds a T/C of zero for them, seemingly a mark for toxic or unscored doses. Some doses without a T/C left all or most animals alive at the check, yet need not have been tolerated: the source hardly ever lists a survival T/C far under the control, and the zero likely stands for such cases as well. Counts of survivors are from the toxicity check (mostly the fifth day) where no day follows; animals may have died later. Schedule codes are those of the source, taken here to give the interval after Q, in days (D) or hours (H), and the number of doses after X. Some entries hold several experiments; the values are given in rising order. Some structures stand for samples that the source files as different forms (salt, stereo form or complex); doses refer to the form tested. Where survival is the endpoint, the PubChem record calls one and a half times the control and up active, and a quarter to a half above the control has no call in these data; cut-offs in other NCI protocols can differ. Some T/C values are followed by the survivors on the day toxicity was checked, most often the fifth; where none is given, no animal had died by that day.

Test system: CD2F1 mice, L1210 leukemia ip, survival T/C
Assay: NCI In Vivo Anticancer Drug Screen. Data for tumor model L1210 Leukemia (intraperitoneal) in CD2F1 (CDF1) mice
Settings: higher T/C = longer survival
In short: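 Antitumor effect is scored in animals hosting a serially transplanted tumor. Values compare compound-dosed animals against vehicle-only controls as a simple quotient.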

[1] = T/C endpoint: mean survival time, dose: 400.0 mg/kg/injection, schedule: Q01DX001 (ip), vehicle: saline
[2] = T/C endpoint: mean survival time, dose: 400.0 mg/kg/injection, schedule: Q04DX003 (ip), vehicle: saline with Tween-80
[3] = T/C endpoint: mean survival time, dose: 50.0 mg/kg/injection, schedule: Q01DX009 (ip), vehicle: saline with Tween-80
[4] = T/C endpoint: median survival time, dose: 50.0 mg/kg/injection, schedule: Q01DX009 (ip), vehicle: saline with Tween-80
[5] = T/C endpoint: median survival time, dose: 100.0 mg/kg/injection, schedule: Q01DX009 (ip), vehicle: saline with Tween-80
[6] = T/C endpoint: mean survival time, dose: 300.0 mg/kg/injection, schedule: Q01DX001 (ip), vehicle: other
[7] = T/C endpoint: mean survival time, dose: 25.0 mg/kg/injection, schedule: Q01DX009 (ip), vehicle: other
[8] = T/C endpoint: mean survival time, dose: 50.0 mg/kg/injection, schedule: Q01DX009 (ip), vehicle: other
[9] = T/C endpoint: mean survival time, dose: 100.0 mg/kg/injection, schedule: Q01DX009 (ip), vehicle: other
[10] = T/C endpoint: mean survival time, dose: 200.0 mg/kg/injection, schedule: Q01DX009 (ip), vehicle: other
[11] = T/C endpoint: mean survival time, dose: 100.0 mg/kg/injection, schedule: Q04DX003 (ip), vehicle: saline with Tween-80
[12] = T/C endpoint: mean survival time, dose: 200.0 mg/kg/injection, schedule: Q04DX003 (ip), vehicle: saline with Tween-80
[13] = T/C endpoint: mean survival time, dose: 10.0 mg/kg/injection, schedule: Q01DX009 (ip), vehicle: gum acacia
[14] = T/C endpoint: mean survival time, dose: 100.0 mg/kg/injection, schedule: Q01DX001 (ip), vehicle: saline with Tween-80
[15] = T/C endpoint: mean survival time, dose: 200.0 mg/kg/injection, schedule: Q01DX001 (ip), vehicle: saline with Tween-80
[16] = T/C endpoint: mean survival time, dose: 400.0 mg/kg/injection, schedule: Q01DX001 (ip), vehicle: saline with Tween-80
[17] = T/C endpoint: mean survival time, dose: 400.0 mg/kg/injection, schedule: Q04DX002 (ip), vehicle: saline with Tween-80

CCOC(=O)CCC(NC(=O)c1ccc(CN(C)Cc2cnc3nc(N)nc(N)c3n2)cc1)C(=O)OCC (stereo unspecified)
T/C (T/C endpoint: mean survival time, dose: 50.0 mg/kg/injection, schedule: Q01DX009 (ip), vehicle: Klucel (hydroxypropylcellulose) (HPC)): 125 % of control

CCOC(=O)C(F)(C(=O)OCC)[N+](=O)[O-]
survivor count [1]: 1 of 6

Nc1ccc(Nc2ccccc2C(=O)O)cc1
survivor count [2]: 1 of 6

COc1cccc(/C=N/[N+](C)(C)C)c1O
survivor count [1]: 0 of 4

O=C(Nn1c(=O)c(=O)oc2ccccc21)C(F)(F)F
survivor count [2]: 3 of 6

COc1cc2c(cc1OC)C(N)CCC2 (stereo unspecified)
survivor count (T/C endpoint: mean survival time, dose: 200.0 mg/kg/injection, schedule: Q01DX009 (ip), vehicle: water): 0 of 6

c1ccc(CNCc2ccccc2)cc1
survivor count (T/C endpoint: mean survival time, dose: 400.0 mg/kg/injection, schedule: Q04DX003 (ip), vehicle: Klucel (hydroxypropylcellulose) (HPC)): 1 of 6

COc1cc(OC)c(NC(=O)Oc2ccc(SC)cc2)cc1Cl
survivor count [3]: 3 of 3

c1ccc2c(c1)-c1ccccc1C1NC21 (stereo unspecified)
survivor count [4]: 5 of 6
survivor count [5]: 0 of 6

COc1cccc(Sc2ccc([N+](=O)[O-])c3no[n+]([O-])c23)c1
survivor count (T/C endpoint: median survival time, dose: 120.0 mg/kg/injection, schedule: Q01DX009 (ip), vehicle: saline with Tween-80): 6 of 6
survivor count (T/C endpoint: median survival time, dose: 240.0 mg/kg/injection, schedule: Q01DX009 (ip), vehicle: saline with Tween-80): 1 of 6 and 5 of 6

CC(C)N1CCOCC1
survivor count (T/C endpoint: mean survival time, dose: 200.0 mg/kg/injection, schedule: Q04DX003 (ip), vehicle: acetone): 0 of 6
survivor count (T/C endpoint: mean survival time, dose: 400.0 mg/kg/injection, schedule: Q04DX003 (ip), vehicle: acetone): 0 of 6

C=C(C)C1(CC(C)C)C(=O)NC(=S)NC1=O
survivor count (T/C endpoint: mean survival time, dose: 75.0 mg/kg/injection, schedule: Q01DX001 (ip), vehicle: other): 0 of 6
survivor count (T/C endpoint: mean survival time, dose: 150.0 mg/kg/injection, schedule: Q01DX001 (ip), vehicle: other): 0 of 6
survivor count [6]: 0 of 6

CN(CN1C(=O)CCC1=O)CN1C(=O)CCC1=O
survivor count (T/C endpoint: median survival time, dose: 800.0 mg/kg/injection, schedule: Q01DX005 (ip), vehicle: saline): 0 of 6

C#CC(OC(=O)NC1CCCCC1)(c1ccccc1)c1ccccc1
T/C [7]: 127 % of control
T/C [8]: 129 % of control
survivor count [9]: 6 of 6
survivor count [10]: 5 of 6

Cc1nc2c(NC(=O)CCl)nn(C)c2nc1C
survivor count [2]: 0 of 6

CN1CCCN(C)C1c1ccccc1O
survivor count [11]: 4 of 6
survivor count [12]: 0 of 6
survivor count [2]: 0 of 6

Clc1ncnc2c1ncn2C1CCCCO1 (stereo unspecified)
T/C (T/C endpoint: mean survival time, dose: 264.0 mg/kg/injection, schedule: Q01DX009 (ip), vehicle: other): 137 % of control [5 of 6 alive]
T/C (T/C endpoint: mean survival time, dose: 400.0 mg/kg/injection, schedule: Q01DX009 (ip), vehicle: other): 139 % of control

CC[CH2][Sn]([Cl])([Cl])[CH2]CC.Oc1ccccc1C=NCCN=Cc1ccccc1O
T/C [13]: 128 % of control [4 of 6 alive]
survivor count [13]: 3 of 6
survivor count (T/C endpoint: mean survival time, dose: 20.0 mg/kg/injection, schedule: Q01DX009 (ip), vehicle: gum acacia): 0 of 6
survivor count [14]: 0 of 6
survivor count [15]: 0 of 6
survivor count [16]: 0 of 6

Cc1ccc([Si](C)Cl)cc1
survivor count (T/C endpoint: mean survival time, dose: 400.0 mg/kg/injection, schedule: Q01DX009 (ip), vehicle: saline with Tween-80): 1 of 6

CC1=NN(c2ccc([N+](=O)[O-])cc2)C(=O)C1[N+](=O)[O-] (stereo unspecified) (tested in a mixture with another compound)
survivor count [6]: 3 of 6
survivor count [16]: 0 of 6

C=CC(=O)NC(C)(C)CC(C)=O
survivor count (T/C endpoint: mean survival time, dose: 400.0 mg/kg/injection, schedule: Q01DX009 (ip), vehicle: saline): 3 of 6

O=C(CBr)N1c2ccccc2Sc2ccc(C(F)(F)F)cc21
survivor count [7]: 3 of 6
survivor count [8]: 3 of 6
survivor count [9]: 0 of 6
survivor count [10]: 0 of 6

Oc1cc(O)c(O)cc1O
survivor count [11]: 1 of 6
survivor count [12]: 0 of 6
survivor count [2]: 0 of 6

Oc1ccc(CCl)cc1O
survivor count [15]: 0 of 3
survivor count [16]: 0 of 3

Cc1c2ccncc2c(C)c2c1[nH]c1ccc(O)cc12
T/C (T/C endpoint: mean survival time, dose: 12.5 mg/kg/injection, schedule: Q04DX003 (ip), vehicle: other): 136 % of control
T/C (T/C endpoint: mean survival time, dose: 25.0 mg/kg/injection, schedule: Q04DX003 (ip), vehicle: other): 141 % of control
T/C (T/C endpoint: mean survival time, dose: 33.3 mg/kg/injection, schedule: Q04DX003 (ip), vehicle: water): 130 % of control [5 of 6 alive]
T/C (T/C endpoint: mean survival time, dose: 50.0 mg/kg/injection, schedule: Q04DX003 (ip), vehicle: water): 129 and 148 % of control
survivor count (T/C endpoint: mean survival time, dose: 200.0 mg/kg/injection, schedule: Q04DX003 (ip), vehicle: water): 6 of 6
survivor count (T/C endpoint: mean survival time, dose: 400.0 mg/kg/injection, schedule: Q04DX003 (ip), vehicle: water): 4 of 6

CCOC(=O)C([NH-])C([NH-])C(=O)OCC.[Cl][Pt+2][Cl] (stereo unspecified)
T/C (T/C endpoint: mean survival time, dose: 6.25 mg/kg/injection, schedule: Q04DX003 (ip), vehicle: saline with Tween-80): 137 % of control

CC1=C2C(=O)[C@H]3[C@@H](CC=C4C[C@@H](O)CC[C@@]43C)[C@@H]2CC[C@]12O[C@@H]1C[C@H](C)CN[C@H]1[C@H]2C
survivor count [14]: 6 of 6

O=C(CBr)Nc1cc([N+](=O)[O-])ccc1O
survivor count (T/C endpoint: mean survival time, dose: 25.0 mg/kg/injection, schedule: Q01DX009 (ip), vehicle: saline with Tween-80): 2 of 3

CCCCOP(=O)(N=C=S)OCCCC
survivor count (T/C endpoint: mean survival time, dose: 200.0 mg/kg/injection, schedule: Q04DX002 (ip), vehicle: saline with Tween-80): 1 of 3
survivor count [17]: 0 of 3

COc1cc(/C=C/[N+](=O)[O-])cc(Br)c1OC
survivor count [4]: 0 of 6
survivor count [5]: 0 of 6

S=c1nc[nH]c2c1ncn2CN1CCCCC1
T/C [3]: 137 % of control
T/C (T/C endpoint: mean survival time, dose: 100.0 mg/kg/injection, schedule: Q01DX009 (ip), vehicle: saline with Tween-80): 148 % of control

NC(=S)N/N=C1\c2cc(Cl)ccc2-c2c1cc(Cl)cc2[N+](=O)[O-]
survivor count (T/C endpoint: mean survival time, dose: 200.0 mg/kg/injection, schedule: Q01DX001 (ip), vehicle: carboxymethylcellulose (CMC)): 0 of 4
survivor count (T/C endpoint: mean survival time, dose: 400.0 mg/kg/injection, schedule: Q01DX001 (ip), vehicle: carboxymethylcellulose (CMC)): 0 of 4

N#CC1C2CCC(O2)C1C(=O)OCc1ccccc1 (stereo unspecified)
survivor count (T/C endpoint: mean survival time, dose: 100.0 mg/kg/injection, schedule: Q04DX002 (ip), vehicle: saline with Tween-80): 3 of 3
survivor count [17]: 2 of 3
